In paper PMC11167000:
These are yes or no findings as the source states them, for the method shown. Binding can be weak; no strength is given.

Chains of the proteins cited; added tags and fusions are not shown. Lines headed by an entry give the natural chain unless they say otherwise; changes in a name come on top. Residues count along the entry.
UniProt P18075, residues 293-431: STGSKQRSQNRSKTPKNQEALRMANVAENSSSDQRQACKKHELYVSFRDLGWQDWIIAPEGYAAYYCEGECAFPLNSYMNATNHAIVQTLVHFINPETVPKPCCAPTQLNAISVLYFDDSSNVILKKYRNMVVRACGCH
UniProt Q9GZX9: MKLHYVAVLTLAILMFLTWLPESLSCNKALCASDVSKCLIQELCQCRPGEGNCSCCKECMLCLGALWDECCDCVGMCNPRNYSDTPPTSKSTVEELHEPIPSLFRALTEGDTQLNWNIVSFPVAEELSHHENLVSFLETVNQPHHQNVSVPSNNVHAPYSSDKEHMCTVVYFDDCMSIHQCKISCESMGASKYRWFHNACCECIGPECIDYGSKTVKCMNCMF

Assays:
[1] = molecular target: T1, human BMP2 (human) (UniProt P12643); test: SPR; equilibrium binding, Biacore T200, 25 °C; BMP2, BMP7, GDF5 or CHRDL2 amine-coupled to a CM5 chip, TWSG1 proteins as analytes; 0.15 M NaCl, 20 mM HEPES pH 7.5, 2 mM CaCl2, 0.005% Tween 20; 1:1 binding isotherm; both purified
T1 sequence: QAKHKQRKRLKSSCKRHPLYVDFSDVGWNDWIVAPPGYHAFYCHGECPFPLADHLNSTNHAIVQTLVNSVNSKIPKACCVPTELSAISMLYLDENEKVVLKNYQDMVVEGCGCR

[2] = molecular target: human BMP7 (human) (UniProt P18075); test: as above

binding [1]: binds
binding [2]: binds
Substance: TWSG1 Asp34Ala (from UniProt Q9GZX9)
